Reference: the supplement of paper PMC6078165

Test system: MDAMB436
Assay: relative JC-1 red fluorescence (viability) vs pre-drug, coculture with fibroblast (fraction); higher = more viable cancer cells
Settings: 1 µM
Method: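 JC-1 labelled TNBC cells cocultured 1:1 (1,500 cells each) with CellTrace Violet stained primary or stromal fibroblasts in 384-well plates in FluoroBrite medium, treated with one of 42 anticancer drugs at 0.1, 1, 10 or 100 uM. JC-1 red fluorescence (mitochondrial integrity in cancer cells only) was read by plate reader every 8 h for 72 h. Values are normalised to each well's pre-drug value. The stock of one drug was tenfold lower, so its dose labels may be too high.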

CC[C@]1(O)C[C@@H]2CN(CCc3c([nH]c4ccccc34)[C@@](C(=O)OC)(c3cc4c(cc3OC)N(C)[C@H]3[C@@](O)(C(=O)OC)[C@H](OC(C)=O)[C@]5(CC)C=CCN6CC[C@]43[C@@H]65)C2)C1 [Vinblastine]
relative JC-1 red fluorescence
Settings | 8 h | 16 h | 24 h | 32 h | 40 h | 48 h | 56 h | 64 h | 72 h
coculture fibroblast: C12385 | 0.79 | 0.7002 | 0.705 | 0.636 | 0.603 | 0.581 | 0.56 | 0.547 | 0.559
coculture fibroblast: H6013 | 0.854 | 0.8475 | 0.865 | 0.886 | 0.893 | 0.943 | 0.922 | 0.924 | 0.898
coculture fibroblast: H6019 | 0.7622 | 0.751 | 0.757 | 0.718 | 0.708 | 0.71 | 0.691 | 0.695 | 0.693
coculture fibroblast: H6076 | 0.797 | 0.757 | 0.773 | 0.74 | 0.724 | 0.701 | 0.723 | 0.735 | 0.739
coculture fibroblast: H6231 | 0.834 | 0.759 | 0.75297 | 0.677 | 0.642 | 0.614 | 0.59 | 0.557 | 0.534
coculture fibroblast: HADF | 0.8246 | 0.763 | 0.735 | 0.717 | 0.7 | 0.719 | 0.656 | 0.649 | 0.623
coculture fibroblast: HCFa | 0.796 | 0.782 | 0.755 | 0.726 | 0.704 | 0.725 | 0.66 | 0.654 | 0.611
coculture fibroblast: HCPF | 0.793 | 0.698 | 0.6963 | 0.642 | 0.6238 | 0.591 | 0.564 | 0.547 | 0.524
coculture fibroblast: HHSteC | 0.82 | 0.822 | 0.804 | 0.762 | 0.764 | 0.778 | 0.715 | 0.697 | 0.662
coculture fibroblast: HMF | 0.777 | 0.767 | 0.765 | 0.73 | 0.711 | 0.679 | 0.675 | 0.656 | 0.63
coculture fibroblast: HPFa | 0.925 | 0.877 | 0.865 | 0.823 | 0.825 | 0.842 | 0.778 | 0.763 | 0.714
coculture fibroblast: HUF | 0.884 | 0.794 | 0.771 | 0.698 | 0.644 | 0.619 | 0.593 | 0.577 | 0.575
coculture fibroblast: Hs5 | 0.764 | 0.749 | 0.762 | 0.711 | 0.713 | 0.674 | 0.697 | 0.68 | 0.696
coculture fibroblast: Hs27A | 0.963 | 0.9077 | 0.937 | 0.932 | 0.922 | 0.9091 | 0.898 | 0.889 | 0.815
coculture fibroblast: Hs343T | 0.7878 | 0.7503 | 0.735 | 0.6901 | 0.66 | 0.625 | 0.604 | 0.58 | 0.569
coculture fibroblast: WS1 | 0.7942 | 0.744 | 0.723 | 0.655 | 0.618 | 0.593 | 0.573 | 0.56 | 0.567

The reference is the same well before dosing, and untreated signal decays as well.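 Labels refer to human fibroblasts, largely primary: uterine (C12385, HUF), lung (H6013), bone (Hs27A), adrenal (HADF), skin (WS1), plus mammary HMF and breast cancer-associated Hs343T. Cancer lines are basal-like or mesenchymal-like triple-negative breast cancer. The paper counts as hits responses shifting over 3x the replicate standard deviation. The tissue of the other fibroblasts is not given here.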
